This is one part of the list.
Columns and labels:
Assay in all cases: log2 fold change, soluble protein after heating vs DMSO (PISA); higher = thermal stabilisation; K562 cells, 10 uM, 30 min; active = over 0.2 and 3.5 SD of the protein, either way, in both replicates (recomputed)
[1] = compound: COC1=CC=C(C=C1)CN2C=CC3=C2C=C(C=C3)C(=O)NO
Method in brief: (§1)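 For each measurement, 10 μM compound was applied for 30 min to K562 cells at 2×10^6 cells/mL. Aliquots were heated for 3 min across 48°C-58°C, pooled, and extracted in PBS with 0.5% NP-40 at 4°C; the supernatant after 21,000xg for 90 min was soluble protein. This was quantified by TMTpro 16plex LC-MS/MS with channel sums equalised, and thermal stability was reported relative to control samples from duplicates, on a log2 fold-change scale.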

Chains of the proteins cited; added tags and fusions are not shown. Lines headed by an entry give the natural chain unless they say otherwise; changes in a name come on top.
UniProt Q9H269: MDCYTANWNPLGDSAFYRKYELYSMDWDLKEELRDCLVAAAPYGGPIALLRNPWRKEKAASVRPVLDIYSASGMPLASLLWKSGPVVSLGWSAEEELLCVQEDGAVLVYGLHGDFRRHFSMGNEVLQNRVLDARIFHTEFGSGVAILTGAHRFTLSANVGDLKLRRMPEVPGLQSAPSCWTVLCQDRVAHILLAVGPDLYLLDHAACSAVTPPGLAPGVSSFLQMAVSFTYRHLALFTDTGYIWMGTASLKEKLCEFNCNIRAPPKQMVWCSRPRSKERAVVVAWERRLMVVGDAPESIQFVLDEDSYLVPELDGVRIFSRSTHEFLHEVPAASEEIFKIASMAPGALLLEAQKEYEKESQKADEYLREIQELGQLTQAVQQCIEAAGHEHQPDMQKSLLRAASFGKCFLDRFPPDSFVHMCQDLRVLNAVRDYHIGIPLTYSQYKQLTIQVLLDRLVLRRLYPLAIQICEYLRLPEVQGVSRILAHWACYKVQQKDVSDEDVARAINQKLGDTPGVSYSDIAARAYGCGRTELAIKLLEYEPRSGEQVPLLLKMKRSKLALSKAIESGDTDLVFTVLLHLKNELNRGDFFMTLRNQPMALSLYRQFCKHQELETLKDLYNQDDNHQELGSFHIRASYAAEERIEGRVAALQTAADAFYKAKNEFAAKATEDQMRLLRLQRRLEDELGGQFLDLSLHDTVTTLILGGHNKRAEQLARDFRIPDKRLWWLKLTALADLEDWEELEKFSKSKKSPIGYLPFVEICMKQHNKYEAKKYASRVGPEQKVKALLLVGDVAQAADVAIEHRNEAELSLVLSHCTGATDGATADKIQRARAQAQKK
UniProt Q8IV63: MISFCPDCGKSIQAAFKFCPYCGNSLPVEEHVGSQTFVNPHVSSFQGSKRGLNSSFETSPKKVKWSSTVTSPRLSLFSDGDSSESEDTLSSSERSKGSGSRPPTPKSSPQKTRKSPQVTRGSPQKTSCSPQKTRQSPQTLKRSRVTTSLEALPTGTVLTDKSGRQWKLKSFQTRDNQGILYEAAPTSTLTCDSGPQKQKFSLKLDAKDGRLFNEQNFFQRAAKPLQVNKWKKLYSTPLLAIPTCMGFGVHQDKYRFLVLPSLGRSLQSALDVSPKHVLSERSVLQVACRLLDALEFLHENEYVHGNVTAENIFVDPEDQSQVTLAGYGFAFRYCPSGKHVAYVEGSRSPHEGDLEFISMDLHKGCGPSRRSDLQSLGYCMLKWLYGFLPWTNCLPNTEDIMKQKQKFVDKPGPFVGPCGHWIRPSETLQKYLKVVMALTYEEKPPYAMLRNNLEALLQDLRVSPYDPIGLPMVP
UniProt P45880: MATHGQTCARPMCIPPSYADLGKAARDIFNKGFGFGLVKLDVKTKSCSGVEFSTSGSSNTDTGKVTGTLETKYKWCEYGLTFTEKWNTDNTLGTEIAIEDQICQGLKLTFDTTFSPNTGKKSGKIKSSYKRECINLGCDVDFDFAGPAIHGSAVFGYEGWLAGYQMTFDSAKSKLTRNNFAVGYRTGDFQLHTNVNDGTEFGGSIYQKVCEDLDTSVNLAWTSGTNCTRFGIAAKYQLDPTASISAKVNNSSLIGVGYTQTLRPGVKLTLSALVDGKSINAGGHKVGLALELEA
UniProt Q15061: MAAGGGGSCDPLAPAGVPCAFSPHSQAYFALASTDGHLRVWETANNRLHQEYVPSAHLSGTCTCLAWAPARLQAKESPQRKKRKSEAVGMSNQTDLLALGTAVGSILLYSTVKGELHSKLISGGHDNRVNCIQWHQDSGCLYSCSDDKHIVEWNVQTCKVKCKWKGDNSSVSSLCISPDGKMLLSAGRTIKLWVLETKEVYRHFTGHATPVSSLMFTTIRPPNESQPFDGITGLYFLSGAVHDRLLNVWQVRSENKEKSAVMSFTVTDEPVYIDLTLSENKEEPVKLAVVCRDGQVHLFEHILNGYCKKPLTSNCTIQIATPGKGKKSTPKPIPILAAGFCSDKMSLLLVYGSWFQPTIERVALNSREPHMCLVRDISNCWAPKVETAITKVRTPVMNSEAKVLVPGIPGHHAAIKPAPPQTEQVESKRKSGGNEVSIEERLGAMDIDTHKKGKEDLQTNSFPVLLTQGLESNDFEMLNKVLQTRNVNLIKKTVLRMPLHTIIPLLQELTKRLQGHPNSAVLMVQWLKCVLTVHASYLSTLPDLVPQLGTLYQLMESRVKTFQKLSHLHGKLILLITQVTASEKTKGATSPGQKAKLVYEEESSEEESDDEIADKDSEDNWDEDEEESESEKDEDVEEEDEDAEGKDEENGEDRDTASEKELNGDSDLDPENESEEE
UniProt Q6UXN9, whole entry, looked up: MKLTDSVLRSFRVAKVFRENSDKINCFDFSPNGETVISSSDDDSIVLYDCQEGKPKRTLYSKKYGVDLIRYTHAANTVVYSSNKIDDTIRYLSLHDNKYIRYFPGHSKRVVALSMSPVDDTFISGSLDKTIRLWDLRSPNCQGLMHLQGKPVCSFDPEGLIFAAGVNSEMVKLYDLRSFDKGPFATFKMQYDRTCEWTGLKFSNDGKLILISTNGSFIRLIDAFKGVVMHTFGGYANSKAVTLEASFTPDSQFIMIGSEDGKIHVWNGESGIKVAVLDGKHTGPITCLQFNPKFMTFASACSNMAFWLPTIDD
UniProt P57081: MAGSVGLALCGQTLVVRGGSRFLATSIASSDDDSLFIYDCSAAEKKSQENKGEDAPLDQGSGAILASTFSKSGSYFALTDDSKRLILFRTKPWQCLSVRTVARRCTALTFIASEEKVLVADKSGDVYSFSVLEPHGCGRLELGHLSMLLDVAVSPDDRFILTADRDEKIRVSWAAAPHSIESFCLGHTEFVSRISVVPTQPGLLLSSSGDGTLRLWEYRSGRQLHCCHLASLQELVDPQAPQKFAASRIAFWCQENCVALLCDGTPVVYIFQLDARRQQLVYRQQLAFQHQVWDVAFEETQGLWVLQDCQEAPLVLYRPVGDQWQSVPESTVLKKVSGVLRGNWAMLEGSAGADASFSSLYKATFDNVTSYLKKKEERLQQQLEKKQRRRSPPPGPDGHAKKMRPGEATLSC
UniProt Q9UK41: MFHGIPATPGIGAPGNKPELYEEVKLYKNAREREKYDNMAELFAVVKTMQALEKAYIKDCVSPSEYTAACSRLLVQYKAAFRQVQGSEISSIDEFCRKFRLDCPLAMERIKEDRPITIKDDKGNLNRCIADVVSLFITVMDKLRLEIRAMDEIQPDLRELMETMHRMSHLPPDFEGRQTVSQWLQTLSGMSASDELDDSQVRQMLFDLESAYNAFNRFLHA
UniProt Q9UID3: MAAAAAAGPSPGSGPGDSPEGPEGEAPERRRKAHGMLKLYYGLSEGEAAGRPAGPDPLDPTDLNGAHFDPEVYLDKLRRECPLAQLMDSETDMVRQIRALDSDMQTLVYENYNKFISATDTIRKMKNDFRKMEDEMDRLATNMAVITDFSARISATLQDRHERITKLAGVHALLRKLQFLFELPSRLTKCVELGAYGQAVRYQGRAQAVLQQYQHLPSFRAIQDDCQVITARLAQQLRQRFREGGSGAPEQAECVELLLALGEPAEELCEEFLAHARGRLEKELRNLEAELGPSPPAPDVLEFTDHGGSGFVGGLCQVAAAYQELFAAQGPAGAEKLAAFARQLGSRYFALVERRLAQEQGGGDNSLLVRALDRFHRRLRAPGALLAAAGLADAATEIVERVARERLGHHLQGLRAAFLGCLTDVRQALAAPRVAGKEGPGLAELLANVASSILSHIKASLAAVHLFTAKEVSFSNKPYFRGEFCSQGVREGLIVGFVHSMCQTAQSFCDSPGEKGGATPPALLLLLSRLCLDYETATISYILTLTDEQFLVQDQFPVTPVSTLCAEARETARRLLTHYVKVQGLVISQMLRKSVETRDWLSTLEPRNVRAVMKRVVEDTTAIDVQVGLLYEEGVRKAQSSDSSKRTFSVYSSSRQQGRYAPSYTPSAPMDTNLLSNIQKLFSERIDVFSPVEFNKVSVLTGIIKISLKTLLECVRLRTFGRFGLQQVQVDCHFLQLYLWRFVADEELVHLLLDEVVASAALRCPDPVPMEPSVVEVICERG
UniProt Q8N3P4: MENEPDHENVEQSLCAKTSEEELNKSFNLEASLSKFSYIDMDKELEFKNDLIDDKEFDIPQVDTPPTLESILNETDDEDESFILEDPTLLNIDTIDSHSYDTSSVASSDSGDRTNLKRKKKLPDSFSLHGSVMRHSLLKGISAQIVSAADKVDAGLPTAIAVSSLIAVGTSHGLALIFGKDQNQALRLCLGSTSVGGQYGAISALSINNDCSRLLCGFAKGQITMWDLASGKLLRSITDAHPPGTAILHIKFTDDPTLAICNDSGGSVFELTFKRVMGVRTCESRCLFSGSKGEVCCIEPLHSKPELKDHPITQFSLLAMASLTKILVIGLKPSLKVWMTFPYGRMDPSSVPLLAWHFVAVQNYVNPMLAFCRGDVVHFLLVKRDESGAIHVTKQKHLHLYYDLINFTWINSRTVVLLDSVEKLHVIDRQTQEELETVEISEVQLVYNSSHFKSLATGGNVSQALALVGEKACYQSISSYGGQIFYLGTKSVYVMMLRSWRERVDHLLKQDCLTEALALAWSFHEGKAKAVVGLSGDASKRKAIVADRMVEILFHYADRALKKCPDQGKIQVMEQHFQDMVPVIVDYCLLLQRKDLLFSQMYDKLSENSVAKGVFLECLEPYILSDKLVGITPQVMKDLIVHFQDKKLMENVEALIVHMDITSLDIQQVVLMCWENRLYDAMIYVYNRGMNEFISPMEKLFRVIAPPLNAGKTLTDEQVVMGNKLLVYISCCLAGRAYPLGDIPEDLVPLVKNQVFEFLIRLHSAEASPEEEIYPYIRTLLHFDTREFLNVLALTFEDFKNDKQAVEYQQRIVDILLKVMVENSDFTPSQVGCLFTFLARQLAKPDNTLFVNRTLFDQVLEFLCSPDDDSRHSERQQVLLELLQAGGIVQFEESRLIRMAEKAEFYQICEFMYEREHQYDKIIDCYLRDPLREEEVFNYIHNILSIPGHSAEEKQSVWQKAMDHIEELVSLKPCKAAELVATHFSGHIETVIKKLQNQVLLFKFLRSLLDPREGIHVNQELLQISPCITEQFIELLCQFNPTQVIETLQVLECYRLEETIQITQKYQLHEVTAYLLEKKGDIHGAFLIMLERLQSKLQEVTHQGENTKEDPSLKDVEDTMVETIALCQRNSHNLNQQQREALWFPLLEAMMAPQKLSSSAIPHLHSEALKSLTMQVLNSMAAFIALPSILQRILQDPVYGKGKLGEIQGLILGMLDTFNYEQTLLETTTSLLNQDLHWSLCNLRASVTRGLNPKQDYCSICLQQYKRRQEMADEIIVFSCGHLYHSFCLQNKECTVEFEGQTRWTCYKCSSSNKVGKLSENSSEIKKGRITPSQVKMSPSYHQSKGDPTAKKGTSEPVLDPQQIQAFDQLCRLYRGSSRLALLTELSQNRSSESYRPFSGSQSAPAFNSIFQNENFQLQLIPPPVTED
UniProt Q96MX6, whole entry, looked up: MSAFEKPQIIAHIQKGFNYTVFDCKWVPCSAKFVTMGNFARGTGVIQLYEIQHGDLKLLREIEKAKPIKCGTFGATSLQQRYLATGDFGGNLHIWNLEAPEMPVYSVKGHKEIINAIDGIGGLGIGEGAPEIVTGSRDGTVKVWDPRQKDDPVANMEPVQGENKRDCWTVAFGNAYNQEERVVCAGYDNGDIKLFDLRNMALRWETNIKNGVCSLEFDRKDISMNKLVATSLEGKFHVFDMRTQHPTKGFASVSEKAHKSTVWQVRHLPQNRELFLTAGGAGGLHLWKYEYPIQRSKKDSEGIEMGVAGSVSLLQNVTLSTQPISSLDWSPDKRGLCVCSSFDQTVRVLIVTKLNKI
UniProt Q9H267: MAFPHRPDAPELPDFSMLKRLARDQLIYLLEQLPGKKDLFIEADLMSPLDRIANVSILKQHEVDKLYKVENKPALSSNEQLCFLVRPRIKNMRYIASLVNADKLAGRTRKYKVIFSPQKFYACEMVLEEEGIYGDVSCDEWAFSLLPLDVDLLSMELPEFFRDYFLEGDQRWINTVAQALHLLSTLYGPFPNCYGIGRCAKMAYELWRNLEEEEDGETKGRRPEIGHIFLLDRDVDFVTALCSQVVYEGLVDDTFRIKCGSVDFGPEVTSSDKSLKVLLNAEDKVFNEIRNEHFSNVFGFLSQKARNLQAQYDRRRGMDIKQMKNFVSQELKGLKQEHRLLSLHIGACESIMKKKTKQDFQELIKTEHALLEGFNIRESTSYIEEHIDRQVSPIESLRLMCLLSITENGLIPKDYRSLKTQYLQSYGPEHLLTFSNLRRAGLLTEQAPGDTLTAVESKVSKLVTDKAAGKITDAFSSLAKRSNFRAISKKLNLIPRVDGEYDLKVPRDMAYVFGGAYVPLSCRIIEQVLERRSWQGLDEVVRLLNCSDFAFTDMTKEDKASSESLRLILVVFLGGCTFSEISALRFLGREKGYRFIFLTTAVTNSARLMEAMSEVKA

[2] = compound: CON(C)C(=O)N1N=C(c2cc(F)ccc2F)S[C@@]1(CCCN)c1ccccc1 [filanesib]
Method in brief: as §1

[3] = compound: CO[C@H]1C[C@@H]2CC[C@@H](C)[C@@](O)(O2)C(=O)C(=O)N2CCCC[C@H]2C(=O)O[C@H]([C@H](C)C[C@@H]2CC[C@H](n3cnnn3)[C@H](OC)C2)CC(=O)[C@H](C)/C=C(\C)[C@@H](O)[C@@H](OC)C(=O)[C@H](C)C[C@H](C)/C=C/C=C/C=C/1C [zotarolimus]
Method in brief: as §1

[4] = compound: COc1cc(C(=O)O)ccc1NC(=O)[C@@H]1N[C@@H](CC(C)(C)C)[C@](C#N)(c2ccc(Cl)cc2F)[C@H]1c1cccc(Cl)c1F [idasanutlin]
Method in brief: as §1

[5] = compound: COc1cc(Nc2ncc3c(n2)-c2ccc(Cl)cc2C(c2c(F)cccc2OC)=NC3)ccc1C(=O)O [alisertib]
Method in brief: as §1

[6] = compound: COc1cc2nc(-c3cc(F)ccc3O)nc(N[C@@H]3CNC[C@H]3C(C)(C)O)c2cc1OC
Method in brief: as §1

[7] = compound: COc1cc2ncnc(Nc3ccc(F)c(Cl)c3)c2cc1OCCCN1CCOCC1 [gefitinib]
Method in brief: as §1

[8] = compound: COc1cccc2cc(-c3nc([C@H]4CC[C@H](C(=O)O)CC4)n4ncnc(N)c34)[nH]c12
Method in brief: as §1

[9] = compound: CS(=O)(=O)CCNCc1ccc(-c2ccc3ncnc(Nc4ccc(OCc5cccc(F)c5)c(Cl)c4)c3c2)o1 [lapatinib]
Method in brief: as §1

[10] = compound: CS(=O)(=O)N1CCN(Cc2cc3nc(-c4cccc5[nH]ncc45)nc(N4CCOCC4)c3s2)CC1 [pictilisib]
Method in brief: as §1

Measured: log2 fold change

VPS52 (UniProt Q8N1B4)
inactive: [1] -0.003 | [2] 0.017 | [3] 0.044 | [4] 0.088 | [5] -0.069 | [6] 0.058 | [7] 0.014 | [8] -0.022 | [9] -0.043 | [10] -0.02

VPS53 isoform 4 (UniProt Q5VIR6)
inactive: [1] 0.015 | [2] -0.008 | [3] 0.095 | [4] -0.048 | [5] 0.01 | [6] 0.089 | [7] 0.025 | [8] 0.003 | [9] 0.012 | [10] -0.066

WDR12 (UniProt Q9GZL7)
inactive: [1] 0.045 | [2] -0.008 | [3] -0.005 | [4] -0.008 | [5] 0.02 | [6] 0.038 | [7] 0 | [8] 0.012 | [9] -0.017 | [10] 0.094

VPS16 (UniProt Q9H269)
inactive: [1] 0.018 | [2] -0.093 | [3] 0.033 | [4] -0.065 | [5] -0.056 | [6] -0.009 | [7] -0.1 | [8] -0.017 | [9] -0.006 | [10] -0.044

VRK2 (UniProt Q86Y07)
inactive: [1] -0.009 | [2] 0.075 | [3] 0 | [4] -0.066 | [5] 0.042 | [6] 0.003 | [7] 0.018 | [8] -0.027 | [9] -0.003 | [10] -0.06

WASHC4 (UniProt Q2M389)
inactive: [1] -0.014 | [2] 0.035 | [3] -0.008 | [4] -0.002 | [5] -0.039 | [6] 0.163 | [7] 0.19 | [8] -0.029 | [9] -0.081 | [10] 0.097

VRK1 (UniProt Q99986)
inactive: [1] 0.098 | [2] -0.07 | [3] -0.123 | [4] -0.119 | [5] 0.06 | [6] 0.316 | [7] -0.018 | [8] -0.003 | [9] -0.059 | [10] 0.086

VEZT (UniProt Q9HBM0)
inactive: [1] -0.049 | [2] -0.055 | [3] 0.02 | [4] -0.038 | [5] -0.045 | [6] -0.051 | [7] -0.09 | [8] 0.051 | [9] 0.161 | [10] -0.02

VRK3 (UniProt Q8IV63)
inactive: [1] 0.005 | [2] -0.033 | [3] -0.03 | [4] 0.02 | [5] 0.084 | [6] -0.006 | [7] 0.013 | [8] -0.021 | [9] 0.063 | [10] 0.288

WRAP73 (UniProt Q9P2S5)
inactive: [1] 0.066 | [2] -0.055 | [3] 0.02 | [4] -0.041 | [5] -0.069 | [6] 0.008 | [7] -0.041 | [8] 0.069 | [9] 0.001 | [10] 0.04

VDAC2 (UniProt P45880)
inactive: [1] -0.013 | [2] -0.005 | [3] -0.005 | [4] -0.022 | [5] -0.032 | [6] -0.015 | [7] -0.008 | [8] 0.044 | [9] -0.009 | [10] -0.01

WDR43 (UniProt Q15061)
inactive: [1] -0.014 | [2] -0.019 | [3] -0.017 | [4] -0.072 | [5] -0.061 | [6] 0.058 | [7] -0.006 | [8] 0.042 | [9] -0.025 | [10] 0.06

VTA1 (UniProt Q9NP79)
inactive: [1] -0.01 | [2] -0.033 | [3] 0.044 | [4] -0.094 | [5] -0.014 | [6] 0.056 | [7] -0.003 | [8] -0.008 | [9] -0.014 | [10] 0.006

WASHC2A (UniProt Q641Q2)
inactive: [1] 0.007 | [2] 0.019 | [3] -0.053 | [4] 0.063 | [5] -0.065 | [6] -0.011 | [7] -0.009 | [8] -0.005 | [9] 0.02 | [10] 0.038

VKORC1 (UniProt Q9BQB6)
inactive: [1] 0.079 | [2] -0.077 | [3] 0.022 | [4] -0.089 | [5] 0.016 | [6] -0.019 | [7] -0.05 | [8] -0.144 | [9] -0.06 | [10] -0.021

VPS41 (UniProt P49754)
inactive: [1] 0.004 | [2] -0.085 | [3] 0.015 | [4] -0.068 | [5] 0.038 | [6] -0.032 | [7] -0.002 | [8] -0.063 | [9] 0.008 | [10] -0.028

WDR13 (UniProt Q9H1Z4)
inactive: [1] -0.056 | [2] 0.034 | [3] 0.095 | [4] -0.09 | [5] -0.057 | [6] -0.037 | [7] 0.095 | [8] 0.032 | [9] 0.012 | [10] 0.128

VPS18 (UniProt Q9P253)
inactive: [1] -0.011 | [2] 0.009 | [3] 0.024 | [4] -0.053 | [5] -0.102 | [6] -0.017 | [7] -0.028 | [8] -0.041 | [9] 0.033 | [10] -0.07

VPS13D (UniProt Q5THJ4)
inactive: [1] -0.044 | [2] 0.012 | [3] -0.08 | [4] 0.001 | [5] 0.007 | [6] 0.052 | [7] -0.072 | [8] 0.084 | [9] -0.08 | [10] 0.032

WDR82 (UniProt Q6UXN9)
inactive: [1] -0.067 | [2] 0.144 | [3] 0.015 | [4] 0.047 | [5] -0.051 | [6] 0.002 | [7] -0.008 | [8] -0.018 | [9] 0.037 | [10] 0.015

WDR45B (UniProt Q5MNZ6)
inactive: [1] -0.074 | [2] 0 | [3] -0.064 | [4] -0.029 | [5] 0.011 | [6] 0.081 | [7] 0.025 | [8] 0 | [9] -0.057 | [10] -0.142

WDR4 (UniProt P57081)
inactive: [1] 0.017 | [2] -0.022 | [3] 0.004 | [4] -0.096 | [5] -0.059 | [6] -0.058 | [7] -0.01 | [8] 0.049 | [9] 0.206 | [10] 0.131

VPS28 (UniProt Q9UK41)
inactive: [1] -0.17 | [2] -0.061 | [3] 0.008 | [4] -0.076 | [5] 0.07 | [6] 0.038 | [7] 0.027 | [8] 0.033 | [9] 0.023 | [10] 0.059

VPS51 (UniProt Q9UID3)
inactive: [1] 0.029 | [2] -0.024 | [3] -0.01 | [4] -0.098 | [5] -0.092 | [6] 0.055 | [7] 0.019 | [8] -0.057 | [9] -0.032 | [10] 0.013

VPS8 (UniProt Q8N3P4)
inactive: [1] 0.092 | [2] 0.001 | [3] 0.043 | [4] -0.03 | [5] 0.133 | [6] 0.01 | [7] 0.076 | [8] -0.025 | [9] 0.046 | [10] 0.055

WDR92 (UniProt Q96MX6)
inactive: [1] 0.049 | [2] -0.004 | [3] 0.034 | [4] 0.011 | [5] -0.069 | [6] -0.012 | [7] -0.051 | [8] -0.143 | [9] 0.039 | [10] -0.08

WAPL isoform 3 (UniProt Q7Z5K2)
inactive: [1] 0.052 | [2] -0.009 | [3] 0.128 | [4] -0.027 | [5] 0.038 | [6] -0.273 | [7] -0.006 | [8] -0.003 | [9] 0 | [10] 0.027

VPS33B (UniProt Q9H267)
inactive: [1] 0.027 | [2] 0.011 | [3] 0.026 | [4] -0.036 | [5] -0.116 | [6] -0.046 | [7] 0.118 | [8] -0.147 | [9] 0.011 | [10] -0.035

Quoted at random: two records from the list
WDR45B (UniProt Q5MNZ6)
inactive: [1] -0.074 | [2] 0 | [3] -0.064 | [4] -0.029 | [5] 0.011 | [6] 0.081 | [7] 0.025 | [8] 0 | [9] -0.057 | [10] -0.142

VPS8 (UniProt Q8N3P4)
inactive: [1] 0.092 | [2] 0.001 | [3] 0.043 | [4] -0.03 | [5] 0.133 | [6] 0.01 | [7] 0.076 | [8] -0.025 | [9] 0.046 | [10] 0.055

Later entries

WASL (UniProt O00401)
inactive: [1] 0.04 | [2] -0.003 | [3] -0.068 | [4] -0.086 | [5] 0.013 | [6] 0.027 | [7] 0.175 | [8] -0.015 | [9] 0.033 | [10] 0.049

WDR6 (UniProt Q9NNW5)
inactive: [1] -0.054 | [2] -0.013 | [3] 0.008 | [4] -0.011 | [5] -0.095 | [6] 0.002 | [7] 0.004 | [8] 0.006 | [9] 0.037 | [10] -0.002
